In patent US20180238866A1 one finds binding data, which are given here for one molecule.

Amino acid sequences for entries named in this document (tags omitted). Residues count along the entry.
UniProt P78423, residues 25-100: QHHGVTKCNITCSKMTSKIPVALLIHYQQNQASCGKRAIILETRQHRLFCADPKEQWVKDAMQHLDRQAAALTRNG

Experiment [1] deals with fractalkine (FKN) (UniProt P78423). As to the kind of experiment: ELISA binding assay (FIG. 12). On the technique in general: In an ELISA, binding on a coated surface is turned into a signal by an enzyme label.
The target is the same in experiment [2]. The experiment in a line: ELISA: GST-peptide on FKN coated at 10 ug/ml, anti-GST-HRP.

These are yes or no findings as the source states them, for the method shown. Some results given as binding are weak or reduced against the parent protein; the word gives no strength. Tags and fused reporters may be left off the sequences shown.

Turning to LPNDGQCHLENNMYTMSHYY (peptide, not shown: a dimerising Fc or GST) [site 2 peptide from integrin β1 (S2-β1 peptide, β1 275-294), linear, GST fusion], the binding result in the experiment with fractalkine (FKN) [1] and in the experiment with fractalkine (FKN) [2] was “binds” each time.
